The source of these data is article PMC7492734.

Chains of the proteins cited; added tags and fusions are not shown. Lines headed by an entry give the natural chain unless they say otherwise; changes in a name come on top. Residues count along the entry.
UniProt P05187: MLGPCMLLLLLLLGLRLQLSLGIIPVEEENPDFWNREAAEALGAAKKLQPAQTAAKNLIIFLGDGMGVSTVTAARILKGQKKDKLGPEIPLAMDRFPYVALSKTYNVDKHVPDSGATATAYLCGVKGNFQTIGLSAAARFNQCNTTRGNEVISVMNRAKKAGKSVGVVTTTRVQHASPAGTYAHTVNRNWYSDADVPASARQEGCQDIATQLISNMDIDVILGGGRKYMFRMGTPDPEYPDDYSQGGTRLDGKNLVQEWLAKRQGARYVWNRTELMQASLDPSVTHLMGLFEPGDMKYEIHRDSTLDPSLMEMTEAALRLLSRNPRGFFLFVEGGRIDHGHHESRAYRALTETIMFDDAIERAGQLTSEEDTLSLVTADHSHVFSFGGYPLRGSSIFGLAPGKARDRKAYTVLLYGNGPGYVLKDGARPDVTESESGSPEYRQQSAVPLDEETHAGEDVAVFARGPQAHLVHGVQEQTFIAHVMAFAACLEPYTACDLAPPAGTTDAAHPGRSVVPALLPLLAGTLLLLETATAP
UniProt P11021, residues 19-654: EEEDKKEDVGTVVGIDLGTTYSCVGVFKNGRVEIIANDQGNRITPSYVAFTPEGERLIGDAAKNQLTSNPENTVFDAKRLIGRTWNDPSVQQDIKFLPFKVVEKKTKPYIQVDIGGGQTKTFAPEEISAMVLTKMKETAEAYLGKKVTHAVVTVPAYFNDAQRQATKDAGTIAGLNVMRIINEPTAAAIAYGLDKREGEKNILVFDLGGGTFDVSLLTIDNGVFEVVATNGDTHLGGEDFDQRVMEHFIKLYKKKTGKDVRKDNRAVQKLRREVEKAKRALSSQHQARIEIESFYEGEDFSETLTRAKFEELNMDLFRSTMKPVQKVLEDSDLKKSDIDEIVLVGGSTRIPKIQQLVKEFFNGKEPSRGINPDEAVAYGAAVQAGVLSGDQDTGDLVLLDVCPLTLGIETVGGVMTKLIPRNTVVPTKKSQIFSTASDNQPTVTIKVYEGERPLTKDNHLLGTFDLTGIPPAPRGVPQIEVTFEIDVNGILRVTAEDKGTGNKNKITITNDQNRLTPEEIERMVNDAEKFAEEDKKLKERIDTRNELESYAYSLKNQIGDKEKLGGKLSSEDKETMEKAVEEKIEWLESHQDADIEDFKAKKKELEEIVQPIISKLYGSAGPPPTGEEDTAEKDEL

These are yes or no findings as the source states them, for the method shown. Binding seen in cells or lysates may run through a third protein. These calls come from enrichment with a bait or labelling near it, and not all partners need be listed.

This experiment has as its target C-terminal 2×Flag-tagged placental alkaline phosphatase (ALPP-2×Flag) (human) (UniProt P05187). Kind of experiment: affinity purification with mass spectrometry; uninfected Flag-ALPP-overexpressing U-251 MG cells; Flag immunoprecipitate stained with silver and Coomassie; the distinctive 78-kDa protein identified by LC-MS.

For “BIP (GRP78), endogenous (from UniProt P11021 19-654)”, the binding result is listed as “binds”.
